US20210061896A1
No constants are given. Whether binding was seen depends on the method and setting. Some binding calls cover weakened binding; strength is not graded here. For part of these data: Sequences can lack the tags named with a protein.

Experiments:
[1] = molecular target: T1, GST-huBDNFpro-E2 peptide fragment (human); assay: ELISA on GST fusion protein
T1 sequence: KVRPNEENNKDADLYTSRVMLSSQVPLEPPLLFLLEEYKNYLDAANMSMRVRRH

[2] = molecular target: T2, GST-huBDNFpro-E5 peptide fragment (human); assay: ELISA on GST fusion protein
T2 sequence: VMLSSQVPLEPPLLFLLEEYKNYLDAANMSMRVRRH

[3] = molecular target: T3, full length GST-huBDNFpro (human) (UniProt P23560); assay: ELISA on GST fusion protein
T3 sequence: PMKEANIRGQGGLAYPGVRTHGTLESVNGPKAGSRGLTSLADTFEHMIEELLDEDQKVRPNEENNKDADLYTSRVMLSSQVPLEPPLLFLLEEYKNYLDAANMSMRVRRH

huBDNFpro (human) = molecular target: T4, huBDNFpro (human) (UniProt P23560); assay: Western blot
T4 sequence: T3 sequence

[4] = molecular target: T5, biotinylated DH peptide fragment (human); assay: ELISA on biotinylated peptide
T5 sequence (peptide, biotinylated (position not stated)): DAANMSMRVRRH

Measured: binding

B1: 2H8 monoclonal antibody (antibody, human IgG4, kappa, V domains shown)
VH: EVQLVETGGGLVQPGGSLRLSCAASGFTFSSYGMHWVRQAPGKGLEWVSVISGSGDSTYYAESVKGRFTISRDNARNTVYLQMNSLRAEDTAVYYCASGILTGYVFDYWGKGTMVTVSS
VL: DVVMTQSPLSLPVTLGQPASISCRSSQSLVSNDGNTYLNWFQQRPGQPPRRLIYMVSKWDSGVPDRFSGSGSGTDFTLRISRVEAEDVGVYYCMQSTHWPPTFGGGTKLEIKR
not listed: [4]
binds: all other assays above

B2: 1D3 monoclonal antibody (antibody, human IgG4, kappa, V domains shown)
VH: QVQLVESGGGLIQPGGSMRLSCAASGFSLSGYDMHWVRQIAGKGLEWVAGLGMEGDSYYSASVKGRFTISRQDAKNSLYLEMKDLGGGDTAVYYCLRDVHGFDVWGQGTTVTVSS
VL: DVVMTQSPLSLPVTPGEPASISCRSSQSLLYSNGYTYLDWYLQRPGQSPQLLIYMGSNRASGVPDRFSGSGSGTDFTLKISRVEAEDVGVYYCMQALQTPLTFGGGTKLEIKR
binds: all assays above
